According to the supplement of paper PMC12823440, “Inhibitors supercharge kinase turnover through native proteolytic circuits” (Nature, 2025):
Some of the results follow. The calls rarely recur for the same compound in another form.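 In K562 cells expressing nanoluciferase-fused kinases, luminescence was recorded at 4 h intervals between 2 and 18 h, normalized as percent of control with DMSO at 100% and a positive control at 0%. A significant (2 sigma) signal drop marks a time point as decreased. The authors' rule for a hit is not shown and takes in more than the number of time points.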

By UniProt entry, the sequences of proteins in these tests, tags left out. Where a name states a change or a piece, a line headed by the entry shows the natural chain unless it says otherwise.
UniProt Q9UM73: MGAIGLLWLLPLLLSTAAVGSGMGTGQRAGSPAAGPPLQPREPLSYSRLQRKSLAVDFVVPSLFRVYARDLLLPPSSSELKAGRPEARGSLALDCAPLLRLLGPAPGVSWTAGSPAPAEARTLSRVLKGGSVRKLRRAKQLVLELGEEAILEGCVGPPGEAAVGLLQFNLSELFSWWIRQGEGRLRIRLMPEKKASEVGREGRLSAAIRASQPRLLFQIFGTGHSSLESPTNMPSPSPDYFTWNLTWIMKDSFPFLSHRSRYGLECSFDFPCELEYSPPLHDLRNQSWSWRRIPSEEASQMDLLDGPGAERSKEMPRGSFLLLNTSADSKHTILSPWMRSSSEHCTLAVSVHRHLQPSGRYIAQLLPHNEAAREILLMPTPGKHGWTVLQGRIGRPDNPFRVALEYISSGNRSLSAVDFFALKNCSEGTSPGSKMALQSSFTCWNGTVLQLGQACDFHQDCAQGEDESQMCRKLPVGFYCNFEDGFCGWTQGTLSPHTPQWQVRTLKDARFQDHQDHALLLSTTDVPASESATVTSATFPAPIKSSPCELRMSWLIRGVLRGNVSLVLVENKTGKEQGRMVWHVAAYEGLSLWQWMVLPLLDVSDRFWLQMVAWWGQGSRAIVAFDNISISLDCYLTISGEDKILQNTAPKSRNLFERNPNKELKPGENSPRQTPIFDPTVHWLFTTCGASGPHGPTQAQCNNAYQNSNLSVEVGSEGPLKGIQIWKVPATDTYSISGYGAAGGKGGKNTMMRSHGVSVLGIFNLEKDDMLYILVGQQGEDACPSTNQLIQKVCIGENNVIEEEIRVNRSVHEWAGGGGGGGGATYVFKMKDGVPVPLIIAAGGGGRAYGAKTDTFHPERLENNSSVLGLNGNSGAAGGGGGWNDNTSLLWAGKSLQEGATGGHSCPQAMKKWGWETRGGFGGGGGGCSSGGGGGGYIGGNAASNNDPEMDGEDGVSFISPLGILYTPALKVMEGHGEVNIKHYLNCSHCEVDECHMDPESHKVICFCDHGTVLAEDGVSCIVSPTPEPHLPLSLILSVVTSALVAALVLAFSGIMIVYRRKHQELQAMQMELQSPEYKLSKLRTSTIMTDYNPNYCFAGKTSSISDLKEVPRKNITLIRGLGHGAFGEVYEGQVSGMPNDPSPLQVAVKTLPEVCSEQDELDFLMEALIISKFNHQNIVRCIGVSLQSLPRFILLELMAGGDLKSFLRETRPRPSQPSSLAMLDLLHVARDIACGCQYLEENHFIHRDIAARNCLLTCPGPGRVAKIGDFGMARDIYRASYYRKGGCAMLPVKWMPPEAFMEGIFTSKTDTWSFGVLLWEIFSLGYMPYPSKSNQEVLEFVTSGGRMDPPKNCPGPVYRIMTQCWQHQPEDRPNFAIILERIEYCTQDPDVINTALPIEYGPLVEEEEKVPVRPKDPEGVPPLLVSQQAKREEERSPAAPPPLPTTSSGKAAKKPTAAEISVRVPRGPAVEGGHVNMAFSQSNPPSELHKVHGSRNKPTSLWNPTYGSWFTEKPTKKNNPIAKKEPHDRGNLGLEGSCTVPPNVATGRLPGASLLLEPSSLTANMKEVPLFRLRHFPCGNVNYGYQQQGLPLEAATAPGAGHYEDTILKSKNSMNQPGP
UniProt P10398: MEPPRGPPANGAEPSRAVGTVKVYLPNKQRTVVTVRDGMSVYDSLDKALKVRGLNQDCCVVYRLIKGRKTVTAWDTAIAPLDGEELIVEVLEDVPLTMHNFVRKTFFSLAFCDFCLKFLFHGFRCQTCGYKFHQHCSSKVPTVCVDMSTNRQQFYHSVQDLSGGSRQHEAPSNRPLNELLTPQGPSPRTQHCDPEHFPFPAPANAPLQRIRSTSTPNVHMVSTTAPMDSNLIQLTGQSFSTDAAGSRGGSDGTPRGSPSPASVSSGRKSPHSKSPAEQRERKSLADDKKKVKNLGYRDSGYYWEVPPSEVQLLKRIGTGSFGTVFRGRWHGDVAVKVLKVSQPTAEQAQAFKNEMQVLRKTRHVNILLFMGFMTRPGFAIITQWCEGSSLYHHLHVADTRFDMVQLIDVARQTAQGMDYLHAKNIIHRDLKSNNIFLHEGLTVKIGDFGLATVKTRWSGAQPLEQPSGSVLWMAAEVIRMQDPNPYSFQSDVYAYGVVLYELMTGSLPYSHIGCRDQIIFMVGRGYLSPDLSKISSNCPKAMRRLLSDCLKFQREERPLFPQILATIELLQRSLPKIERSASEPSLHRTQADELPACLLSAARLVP
UniProt O14965: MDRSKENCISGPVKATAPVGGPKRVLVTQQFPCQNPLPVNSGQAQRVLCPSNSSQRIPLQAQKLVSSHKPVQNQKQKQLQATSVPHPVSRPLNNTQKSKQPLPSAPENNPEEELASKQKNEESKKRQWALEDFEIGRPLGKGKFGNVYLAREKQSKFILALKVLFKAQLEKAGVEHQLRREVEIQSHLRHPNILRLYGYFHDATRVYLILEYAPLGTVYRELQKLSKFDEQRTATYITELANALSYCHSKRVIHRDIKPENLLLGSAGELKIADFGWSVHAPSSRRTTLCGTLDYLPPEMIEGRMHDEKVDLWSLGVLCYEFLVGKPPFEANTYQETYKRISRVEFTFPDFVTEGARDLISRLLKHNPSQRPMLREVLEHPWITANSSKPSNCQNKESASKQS
UniProt Q96GD4, whole entry: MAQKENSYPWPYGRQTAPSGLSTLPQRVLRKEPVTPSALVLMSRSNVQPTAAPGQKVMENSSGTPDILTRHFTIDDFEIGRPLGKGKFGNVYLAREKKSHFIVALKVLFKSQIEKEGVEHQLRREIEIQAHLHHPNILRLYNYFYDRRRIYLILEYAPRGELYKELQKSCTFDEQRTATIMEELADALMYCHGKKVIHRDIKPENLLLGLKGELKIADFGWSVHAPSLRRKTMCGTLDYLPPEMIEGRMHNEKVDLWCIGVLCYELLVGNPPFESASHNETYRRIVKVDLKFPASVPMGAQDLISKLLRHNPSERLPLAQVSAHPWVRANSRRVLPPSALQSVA
UniProt Q9UQB9: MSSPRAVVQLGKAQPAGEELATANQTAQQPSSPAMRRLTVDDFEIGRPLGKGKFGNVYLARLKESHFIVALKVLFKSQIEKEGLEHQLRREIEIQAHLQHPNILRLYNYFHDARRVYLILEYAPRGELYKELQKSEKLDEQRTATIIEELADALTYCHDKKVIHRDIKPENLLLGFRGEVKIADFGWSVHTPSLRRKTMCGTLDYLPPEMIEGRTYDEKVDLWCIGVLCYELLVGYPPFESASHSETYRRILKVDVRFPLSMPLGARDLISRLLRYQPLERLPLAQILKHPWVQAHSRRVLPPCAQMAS
UniProt P51813: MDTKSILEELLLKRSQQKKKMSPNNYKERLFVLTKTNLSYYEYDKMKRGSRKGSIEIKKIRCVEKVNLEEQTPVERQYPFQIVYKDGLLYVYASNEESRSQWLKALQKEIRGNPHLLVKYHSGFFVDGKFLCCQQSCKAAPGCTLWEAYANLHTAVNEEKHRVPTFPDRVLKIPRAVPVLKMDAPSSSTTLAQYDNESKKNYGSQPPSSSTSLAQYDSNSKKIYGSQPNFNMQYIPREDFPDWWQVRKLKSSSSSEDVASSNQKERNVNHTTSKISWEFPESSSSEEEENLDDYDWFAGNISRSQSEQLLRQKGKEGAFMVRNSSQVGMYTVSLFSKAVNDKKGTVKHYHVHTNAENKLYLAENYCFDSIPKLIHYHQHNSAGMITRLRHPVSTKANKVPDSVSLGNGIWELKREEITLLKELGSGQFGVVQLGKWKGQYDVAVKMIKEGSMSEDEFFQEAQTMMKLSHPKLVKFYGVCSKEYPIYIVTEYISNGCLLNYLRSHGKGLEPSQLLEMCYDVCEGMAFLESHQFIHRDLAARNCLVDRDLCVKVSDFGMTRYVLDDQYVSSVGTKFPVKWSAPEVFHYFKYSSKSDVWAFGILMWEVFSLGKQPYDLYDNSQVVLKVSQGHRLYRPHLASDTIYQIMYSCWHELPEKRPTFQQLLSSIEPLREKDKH
UniProt P15056, whole entry, looked up: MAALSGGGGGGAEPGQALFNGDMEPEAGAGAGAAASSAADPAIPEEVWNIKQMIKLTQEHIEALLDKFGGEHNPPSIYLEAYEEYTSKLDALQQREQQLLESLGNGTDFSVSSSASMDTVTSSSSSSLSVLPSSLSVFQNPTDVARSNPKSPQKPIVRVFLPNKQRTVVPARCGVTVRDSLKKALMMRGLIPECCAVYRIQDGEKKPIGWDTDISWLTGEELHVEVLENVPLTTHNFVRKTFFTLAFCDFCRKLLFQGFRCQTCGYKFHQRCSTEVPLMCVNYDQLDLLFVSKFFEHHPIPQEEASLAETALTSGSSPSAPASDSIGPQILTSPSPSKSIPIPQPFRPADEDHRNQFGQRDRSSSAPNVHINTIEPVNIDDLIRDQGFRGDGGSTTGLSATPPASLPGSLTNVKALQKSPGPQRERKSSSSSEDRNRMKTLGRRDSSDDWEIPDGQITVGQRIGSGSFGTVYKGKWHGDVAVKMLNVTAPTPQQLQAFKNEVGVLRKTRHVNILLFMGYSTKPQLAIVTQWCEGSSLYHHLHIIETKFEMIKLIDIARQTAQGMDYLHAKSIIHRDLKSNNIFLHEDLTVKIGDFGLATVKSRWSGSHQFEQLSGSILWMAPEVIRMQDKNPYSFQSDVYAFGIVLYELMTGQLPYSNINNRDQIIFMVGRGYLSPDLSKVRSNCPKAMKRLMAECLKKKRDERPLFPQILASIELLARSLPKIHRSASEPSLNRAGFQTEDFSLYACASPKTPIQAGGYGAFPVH
UniProt Q9UQM7, whole entry: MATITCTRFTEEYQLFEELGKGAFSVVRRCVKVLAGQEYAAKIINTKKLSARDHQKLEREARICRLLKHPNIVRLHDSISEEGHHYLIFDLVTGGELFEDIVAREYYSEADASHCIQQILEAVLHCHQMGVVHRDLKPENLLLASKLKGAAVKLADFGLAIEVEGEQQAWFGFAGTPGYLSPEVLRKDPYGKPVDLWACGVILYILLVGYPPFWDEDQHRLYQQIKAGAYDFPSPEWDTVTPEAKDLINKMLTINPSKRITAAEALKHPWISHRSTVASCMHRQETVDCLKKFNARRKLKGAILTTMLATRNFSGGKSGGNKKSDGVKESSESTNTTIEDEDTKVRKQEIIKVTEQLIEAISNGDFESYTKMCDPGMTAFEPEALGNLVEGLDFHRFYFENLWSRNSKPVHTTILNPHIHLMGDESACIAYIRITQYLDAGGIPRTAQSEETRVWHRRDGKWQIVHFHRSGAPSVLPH
UniProt Q00526: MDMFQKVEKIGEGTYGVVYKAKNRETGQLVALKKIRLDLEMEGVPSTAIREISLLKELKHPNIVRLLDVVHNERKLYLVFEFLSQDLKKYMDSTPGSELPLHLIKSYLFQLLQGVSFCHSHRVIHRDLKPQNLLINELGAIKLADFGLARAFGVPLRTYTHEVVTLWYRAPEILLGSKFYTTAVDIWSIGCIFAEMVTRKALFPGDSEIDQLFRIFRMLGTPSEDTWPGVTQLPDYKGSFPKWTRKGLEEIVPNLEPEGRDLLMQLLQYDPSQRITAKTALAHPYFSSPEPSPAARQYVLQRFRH
UniProt P11802: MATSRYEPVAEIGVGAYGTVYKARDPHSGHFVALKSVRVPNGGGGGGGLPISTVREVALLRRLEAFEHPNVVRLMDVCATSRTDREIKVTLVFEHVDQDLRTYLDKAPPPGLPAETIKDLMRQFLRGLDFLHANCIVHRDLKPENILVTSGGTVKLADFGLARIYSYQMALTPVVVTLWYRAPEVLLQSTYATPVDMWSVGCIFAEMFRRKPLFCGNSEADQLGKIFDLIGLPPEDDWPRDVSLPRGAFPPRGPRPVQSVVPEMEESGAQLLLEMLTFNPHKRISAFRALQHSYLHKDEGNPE
UniProt Q00535, whole entry, looked up: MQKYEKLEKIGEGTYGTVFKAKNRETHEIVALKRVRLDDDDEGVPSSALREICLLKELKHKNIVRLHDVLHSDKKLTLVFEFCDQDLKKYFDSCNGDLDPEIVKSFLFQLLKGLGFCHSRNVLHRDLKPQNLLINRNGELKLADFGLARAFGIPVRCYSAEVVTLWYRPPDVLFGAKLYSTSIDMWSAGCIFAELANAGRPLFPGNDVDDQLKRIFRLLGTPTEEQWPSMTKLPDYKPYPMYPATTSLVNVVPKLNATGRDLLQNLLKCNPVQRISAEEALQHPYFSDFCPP
UniProt Q00534, whole entry: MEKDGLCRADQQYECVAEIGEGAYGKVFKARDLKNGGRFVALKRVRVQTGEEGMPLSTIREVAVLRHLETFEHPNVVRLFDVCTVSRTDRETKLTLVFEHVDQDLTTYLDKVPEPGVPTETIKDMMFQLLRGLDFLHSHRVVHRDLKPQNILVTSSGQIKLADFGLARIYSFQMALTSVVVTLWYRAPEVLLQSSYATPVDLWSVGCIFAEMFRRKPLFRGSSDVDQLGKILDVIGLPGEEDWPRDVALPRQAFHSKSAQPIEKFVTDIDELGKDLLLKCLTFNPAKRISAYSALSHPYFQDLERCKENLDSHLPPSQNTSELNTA

Legend:
Assay in all cases: kinase-Nluc reporter destabilization hit call (1 = scored as downregulated) (binary); higher = compound decreases kinase abundance
Conditions in all cases: K562; 2-18 h
ABL1 = ABL1 (UniProt P00519)
AKT1 = AKT1 (UniProt P31749)
ALK = ALK (UniProt Q9UM73)
ARAF = ARAF (UniProt P10398)
AURKA = AURKA (UniProt O14965)
AURKB = AURKB (UniProt Q96GD4)
AURKC = AURKC (UniProt Q9UQB9)
BLK = BLK (UniProt P51451)
BMX = BMX (UniProt P51813)
BRAF = BRAF (UniProt P15056)
BRAF_V600E = tested on: BRAF_V600E
BTK = BTK (UniProt Q06187)
CAMK2A = CAMK2A (UniProt Q9UQM7)
CAMK2G = CAMK2G (UniProt Q13555)
CDK10 = CDK10 (UniProt Q15131)
CDK2 = CDK2 (UniProt P24941)
CDK3 = CDK3 (UniProt Q00526)
CDK4 = CDK4 (UniProt P11802)
CDK5 = CDK5 (UniProt Q00535)
CDK6 = CDK6 (UniProt Q00534)

Measured: kinase-Nluc reporter destabilization hit call

CN(C)c1cc[n+](Cc2ccc(OCCOc3ccc(C[n+]4ccc(N(C)C)cc4)cc3)cc2)cc1 (10 µM)
inactive: ABL1 = 0 | AKT1 = 0 | ALK 0 | ARAF 0 | AURKA 0 | AURKB 0 | AURKC 0 | BLK 0 | BMX 0 | BRAF 0 | BRAF_V600E 0 | BTK 0 | CAMK2A 0 | CAMK2G 0 | CDK10 = 0 | CDK2 = 0 | CDK3 = 0 | CDK4 = 0 | CDK5 = 0 | CDK6 = 0

CCCCNc1ncc(C(=O)NCc2ccc(-n3ccnc3)cc2)c(NC2CCC(O)CC2)n1 (centres undefined) (10 µM)
active: ABL1 = 1
inactive: AKT1 = 0 | ALK 0 | ARAF 0 | AURKA 0 | AURKB 0 | AURKC 0 | BLK 0 | BMX 0 | BRAF 0 | BRAF_V600E 0 | BTK 0 | CAMK2A 0 | CAMK2G 0 | CDK10 = 0 | CDK2 = 0 | CDK3 = 0 | CDK4 = 0 | CDK5 = 0 | CDK6 = 0

CC(C)(CCCCCC(O)CCCCCC(C)(C)C(=O)O)C(=O)O [Bempedoic acid] (10 µM)
inactive: ABL1 = 0 | AKT1 = 0 | ALK 0 | ARAF 0 | AURKA 0 | AURKB 0 | AURKC 0 | BLK 0 | BMX 0 | BRAF 0 | BRAF_V600E 0 | BTK 0 | CAMK2A 0 | CAMK2G 0 | CDK10 = 0 | CDK2 = 0 | CDK3 = 0 | CDK4 = 0 | CDK5 = 0 | CDK6 = 0

Cc1cnc(Nc2ccc(F)cc2Cl)nc1-c1c[nH]c(C(=O)N[C@H](CO)c2cccc(Cl)c2)c1 (10 µM)
inactive: ABL1 = 0 | AKT1 = 0 | ALK 0 | ARAF 0 | AURKA 0 | AURKB 0 | AURKC 0 | BLK 0 | BMX 0 | BRAF 0 | BRAF_V600E 0 | BTK 0 | CAMK2A 0 | CAMK2G 0 | CDK10 = 0 | CDK2 = 0 | CDK3 = 0 | CDK4 = 0 | CDK5 = 0 | CDK6 = 0

CC1=CC(=O)C(C(C)C)=C/C1=N/OC(=O)c1ccccc1C [Poloxin] (2.5 µM)
inactive: ABL1 = 0 | AKT1 = 0 | ALK 0 | ARAF 0 | AURKA 0 | AURKB 0 | AURKC 0 | BLK 0 | BMX 0 | BRAF 0 | BRAF_V600E 0 | BTK 0 | CAMK2A 0 | CAMK2G 0 | CDK10 = 0 | CDK2 = 0 | CDK3 = 0 | CDK4 = 0 | CDK5 = 0 | CDK6 = 0

CCNC(=O)Nc1ccc(-c2nc3c(c(N4CCOC[C@@H]4C)n2)CCN(C2COC2)C3)cc1 (2.5 µM)
inactive: ABL1 = 0 | AKT1 = 0 | ALK 0 | ARAF 0 | AURKA 0 | AURKB 0 | AURKC 0 | BLK 0 | BMX 0 | BRAF 0 | BRAF_V600E 0 | BTK 0 | CAMK2A 0 | CAMK2G 0 | CDK10 = 0 | CDK2 = 0 | CDK3 = 0 | CDK4 = 0 | CDK5 = 0 | CDK6 = 0

CN(C)C(=O)c1cc2cnc(Nc3ccc(N4CCN(CCCCNC(=O)COc5cccc6c5C(=O)N(C5CCC(=O)NC5=O)C6=O)CC4)cn3)nc2n1C1CCCC1 (centres undefined) (10 µM)
inactive: ABL1 = 0 | AKT1 = 0 | ALK 0 | ARAF 0 | AURKA 0 | AURKB 0 | AURKC 0 | BLK 0 | BMX 0 | BRAF 0 | BRAF_V600E 0 | BTK 0 | CAMK2A 0 | CAMK2G 0 | CDK10 = 0 | CDK2 = 0 | CDK3 = 0 | CDK4 = 0 | CDK5 = 0 | CDK6 = 0

No new results follow: 3 of the compounds above.
CCCCNc1ncc(C(=O)NCc2ccc(-n3ccnc3)cc2)c(NC2CCC(O)CC2)n1 (centres undefined) (10 µM)
active: ABL1 = 1
inactive: AKT1 = 0 | ALK 0 | ARAF 0 | AURKA 0 | AURKB 0 | AURKC 0 | BLK 0 | BMX 0 | BRAF 0 | BRAF_V600E 0 | BTK 0 | CAMK2A 0 | CAMK2G 0 | CDK10 = 0 | CDK2 = 0 | CDK3 = 0 | CDK4 = 0 | CDK5 = 0 | CDK6 = 0

CC(C)(CCCCCC(O)CCCCCC(C)(C)C(=O)O)C(=O)O [Bempedoic acid] (10 µM)
inactive: ABL1 = 0 | AKT1 = 0 | ALK 0 | ARAF 0 | AURKA 0 | AURKB 0 | AURKC 0 | BLK 0 | BMX 0 | BRAF 0 | BRAF_V600E 0 | BTK 0 | CAMK2A 0 | CAMK2G 0 | CDK10 = 0 | CDK2 = 0 | CDK3 = 0 | CDK4 = 0 | CDK5 = 0 | CDK6 = 0

Cc1cnc(Nc2ccc(F)cc2Cl)nc1-c1c[nH]c(C(=O)N[C@H](CO)c2cccc(Cl)c2)c1 (10 µM)
inactive: ABL1 = 0 | AKT1 = 0 | ALK 0 | ARAF 0 | AURKA 0 | AURKB 0 | AURKC 0 | BLK 0 | BMX 0 | BRAF 0 | BRAF_V600E 0 | BTK 0 | CAMK2A 0 | CAMK2G 0 | CDK10 = 0 | CDK2 = 0 | CDK3 = 0 | CDK4 = 0 | CDK5 = 0 | CDK6 = 0

(more compounds)

COc1ccc(Cl)cc1N(CC(=O)Nc1ccc2c(c1)OCO2)S(=O)(=O)c1ccccc1 (2.5 µM)
inactive: ABL1 = 0 | AKT1 = 0 | ALK 0 | ARAF 0 | AURKA 0 | AURKB 0 | AURKC 0 | BLK 0 | BMX 0 | BRAF 0 | BRAF_V600E 0 | BTK 0 | CAMK2A 0 | CAMK2G 0 | CDK10 = 0 | CDK2 = 0 | CDK3 = 0 | CDK4 = 0 | CDK5 = 0 | CDK6 = 0

C=CC(=O)N1CCC(c2ccc(C(N)=O)c(-c3ccc(Oc4ccccc4)cc3)n2)CC1 [Orelabrutinib] (2.5 µM)
inactive: ABL1 = 0 | AKT1 = 0 | ALK 0 | ARAF 0 | AURKA 0 | AURKB 0 | AURKC 0 | BLK 0 | BMX 0 | BRAF 0 | BRAF_V600E 0 | BTK 0 | CAMK2A 0 | CAMK2G 0 | CDK10 = 0 | CDK2 = 0 | CDK3 = 0 | CDK4 = 0 | CDK5 = 0 | CDK6 = 0

O=[N+]([O-])c1ccc(-c2nc(-c3ccc(F)cc3)c(-c3ccncc3)[nH]2)cc1 (10 µM)
inactive: ABL1 = 0 | AKT1 = 0 | ALK 0 | ARAF 0 | AURKA 0 | AURKB 0 | AURKC 0 | BLK 0 | BMX 0 | BRAF 0 | BRAF_V600E 0 | BTK 0 | CAMK2A 0 | CAMK2G 0 | CDK10 = 0 | CDK2 = 0 | CDK3 = 0 | CDK4 = 0 | CDK5 = 0 | CDK6 = 0

CCc1c(C(=O)NNC(=O)[C@H](O)c2cc(F)cc(F)c2)ccc(O)c1C (10 µM)
inactive: ABL1 = 0 | AKT1 = 0 | ALK 0 | ARAF 0 | AURKA 0 | AURKB 0 | AURKC 0 | BLK 0 | BMX 0 | BRAF 0 | BRAF_V600E 0 | BTK 0 | CAMK2A 0 | CAMK2G 0 | CDK10 = 0 | CDK2 = 0 | CDK3 = 0 | CDK5 = 0 | CDK6 = 0

COc1cc2c(cc1OC)[C@@H]1C(=O)c3ccc4c(c3O[C@@H]1CO2)C=CC(C)(C)O4 [Deguelin] (10 µM)
inactive: ABL1 = 0 | AKT1 = 0 | ALK 0 | ARAF 0 | AURKA 0 | AURKB 0 | AURKC 0 | BLK 0 | BMX 0 | BRAF 0 | BRAF_V600E 0 | BTK 0 | CAMK2A 0 | CAMK2G 0 | CDK10 = 0 | CDK2 = 0 | CDK3 = 0 | CDK4 = 0 | CDK5 = 0 | CDK6 = 0

Nc1ccc(-c2nc3ccc(-c4nc5ccc(N)cc5[nH]4)cc3[nH]2)cc1 (10 µM)
inactive: ABL1 = 0 | AKT1 = 0 | ALK 0 | ARAF 0 | AURKA 0 | AURKB 0 | AURKC 0 | BLK 0 | BMX 0 | BRAF 0 | BRAF_V600E 0 | BTK 0 | CAMK2A 0 | CAMK2G 0 | CDK10 = 0 | CDK2 = 0 | CDK3 = 0 | CDK4 = 0 | CDK5 = 0 | CDK6 = 0
